Measured values published in publication PMC12528448, “Resistance to CDK7 inhibitors directed by acquired mutation of a conserved residue in cancer cells” (The EMBO Journal, 2025).
Values joined by “and” are separate entries in the source; they are usually repeats but may differ in a detail not shown here. Equal entries are not always repeated. Further values from the same series stand in other lists.

How the values were obtained:
[1] = system: MCF7-CDK4^WT/D99N (CL4) cells; experiment: IncuCyte confluency growth, heterozygous CDK4 D99N clone CL4; type: cell-based, human
Description: (§1) To determine the IC50 of drug treatments on growth, cells were seeded in 96-well culture plates. Two days after seeding, the cells were treated with increasing concentrations of drugs and incubated for 4 days. Cell number was determined using the SRB assay (Skehan et al, [1990]), and IC50 values were calculated using non-linear regression curve fitting in GraphPad Prism v10. For all other growth experiments, cells were seeded into 96-well plates, and appropriate drugs were added 2 days after seeding. Cells were then incubated in an IncuCyte Zoom live-cell imager, with cell confluency measured every 6 h. Cell doubling times were determined by non-linear curve fitting (exponential growth equation) in GraphPad Prism v10.

[2] = system: MCF7-CDK4^D99N (CL1) cells; experiment: IncuCyte confluency growth, homozygous CDK4 D99N clone CL1; type: cell-based, human
Description: as §1

CC(=O)c1c(C)c2cnc(Nc3ccc(N4CCNCC4)cn3)nc2n(C2CCCC2)c1=O [Palbociclib]
% Confluency ([1]; MCF7 CDK4 WT/D99N CL4, 100nM Palbociclib, 228 Hours): 99.97% and 99.94% and 99.91% | % Confluency ([1]; MCF7 CDK4 WT/D99N CL4, 100nM Palbociclib, 240 Hours): 99.95% and 99.92% and 99.93% | % Confluency ([1]; MCF7 CDK4 WT/D99N CL4, 100nM Palbociclib, 252 Hours): 99.96% and 99.93% | % Confluency ([1]; MCF7 CDK4 WT/D99N CL4, 500nM Palbociclib, 120 Hours): 40.34% and 66.78% and 58.85% | % Confluency ([1]; MCF7 CDK4 WT/D99N CL4, 500nM Palbociclib, 132 Hours): 50.29% and 74.63% and 71.04% | % Confluency ([1]; MCF7 CDK4 WT/D99N CL4, 500nM Palbociclib, 144 Hours): 61.64% and 76.28% and 83.21% | % Confluency ([1]; MCF7 CDK4 WT/D99N CL4, 500nM Palbociclib, 156 Hours): 70.40% and 81.62% and 90.78% | % Confluency ([1]; MCF7 CDK4 WT/D99N CL4, 500nM Palbociclib, 168 Hours): 83.18% and 86.41% and 91.67% | % Confluency ([1]; MCF7 CDK4 WT/D99N CL4, 500nM Palbociclib, 180 Hours): 94.98% and 90.78% and 94.80% | % Confluency ([1]; MCF7 CDK4 WT/D99N CL4, 500nM Palbociclib, 192 Hours): 98.48% and 93.58% and 97.95% | % Confluency ([1]; MCF7 CDK4 WT/D99N CL4, 500nM Palbociclib, 204 Hours): 99.63% and 95.39% and 99.23% | % Confluency ([1]; MCF7 CDK4 WT/D99N CL4, 500nM Palbociclib, 216 Hours): 99.86% and 96.33% and 99.61% | % Confluency ([1]; MCF7 CDK4 WT/D99N CL4, 500nM Palbociclib, 228 Hours): 99.80% and 97.19% and 99.65% | % Confluency ([1]; MCF7 CDK4 WT/D99N CL4, 500nM Palbociclib, 240 Hours): 99.69% and 97.59% and 99.70% | % Confluency ([1]; MCF7 CDK4 WT/D99N CL4, 500nM Palbociclib, 252 Hours): 99.67% and 98.11% and 99.79% | % Confluency ([1]; MCF7 CDK4 WT/D99N CL4, 1000nM Palbociclib, 132 Hours): 33.69% and 63.26% and 52.80% | % Confluency ([1]; MCF7 CDK4 WT/D99N CL4, 1000nM Palbociclib, 144 Hours): 40.24% and 66.75% and 64.14% | % Confluency ([1]; MCF7 CDK4 WT/D99N CL4, 1000nM Palbociclib, 156 Hours): 46.30% and 72.91% and 73.04% | % Confluency ([1]; MCF7 CDK4 WT/D99N CL4, 1000nM Palbociclib, 168 Hours): 55.90% and 78.03% and 74.78% | % Confluency ([1]; MCF7 CDK4 WT/D99N CL4, 1000nM Palbociclib, 180 Hours): 72.92% and 83.25% and 82.01% | % Confluency ([1]; MCF7 CDK4 WT/D99N CL4, 1000nM Palbociclib, 192 Hours): 83.09% and 86.79% and 89.83% | % Confluency ([1]; MCF7 CDK4 WT/D99N CL4, 1000nM Palbociclib, 204 Hours): 89.65% and 89.84% and 94.66% | % Confluency ([1]; MCF7 CDK4 WT/D99N CL4, 1000nM Palbociclib, 216 Hours): 95.08% and 91.46% and 96.59% | % Confluency ([1]; MCF7 CDK4 WT/D99N CL4, 1000nM Palbociclib, 228 Hours): 97.92% and 92.07% and 97.14% | % Confluency ([1]; MCF7 CDK4 WT/D99N CL4, 1000nM Palbociclib, 240 Hours): 98.97% and 92.82% and 97.47% | % Confluency ([1]; MCF7 CDK4 WT/D99N CL4, 1000nM Palbociclib, 252 Hours): 99.08% and 93.26% and 97.80% | % Confluency ([2]; MCF7 CDK4 D99N/D99N CL1, 50nM Palbociclib, 120 Hours): 56.30% and 75.92% and 82.07% | % Confluency ([2]; MCF7 CDK4 D99N/D99N CL1, 50nM Palbociclib, 132 Hours): 68.72% and 87.36% and 92.94% | % Confluency ([2]; MCF7 CDK4 D99N/D99N CL1, 50nM Palbociclib, 144 Hours): 80.22% and 91.82% and 97.58% | % Confluency ([2]; MCF7 CDK4 D99N/D99N CL1, 50nM Palbociclib, 156 Hours): 90.24% and 95.10% and 99.34% | % Confluency ([2]; MCF7 CDK4 D99N/D99N CL1, 50nM Palbociclib, 168 Hours): 95.38% and 98.19% and 99.46% | % Confluency ([2]; MCF7 CDK4 D99N/D99N CL1, 50nM Palbociclib, 180 Hours): 98.50% and 99.17% and 99.89% | % Confluency ([2]; MCF7 CDK4 D99N/D99N CL1, 50nM Palbociclib, 192 Hours): 99.47% and 99.71% and 99.97% | % Confluency ([2]; MCF7 CDK4 D99N/D99N CL1, 50nM Palbociclib, 204 Hours): 99.43% and 99.93% and 99.98% | % Confluency ([2]; MCF7 CDK4 D99N/D99N CL1, 50nM Palbociclib, 216 Hours): 99.14% and 99.96% and 99.98% | % Confluency ([2]; MCF7 CDK4 D99N/D99N CL1, 50nM Palbociclib, 228 Hours): 99.10% and 99.94% and 99.96% | % Confluency ([2]; MCF7 CDK4 D99N/D99N CL1, 50nM Palbociclib, 240 Hours): 98.90% and 99.89% and 99.97% | % Confluency ([2]; MCF7 CDK4 D99N/D99N CL1, 50nM Palbociclib, 252 Hours): 98.78% and 99.85% and 99.95% | % Confluency ([2]; MCF7 CDK4 D99N/D99N CL1, 100nM Palbociclib, 120 Hours): 70.85% and 74.82% and 74.98% | % Confluency ([2]; MCF7 CDK4 D99N/D99N CL1, 100nM Palbociclib, 132 Hours): 80.29% and 85.81% and 87.39% | % Confluency ([2]; MCF7 CDK4 D99N/D99N CL1, 100nM Palbociclib, 144 Hours): 91.16% and 90.47% and 96.08% | % Confluency ([2]; MCF7 CDK4 D99N/D99N CL1, 100nM Palbociclib, 156 Hours): 97.93% and 94.16% and 98.43% | % Confluency ([2]; MCF7 CDK4 D99N/D99N CL1, 100nM Palbociclib, 168 Hours): 99.60% and 97.45% and 98.44% | % Confluency ([2]; MCF7 CDK4 D99N/D99N CL1, 100nM Palbociclib, 180 Hours): 99.73% and 99.84% and 99.14% | % Confluency ([2]; MCF7 CDK4 D99N/D99N CL1, 100nM Palbociclib, 192 Hours): 99.80% and 99.97% and 99.81% | % Confluency ([2]; MCF7 CDK4 D99N/D99N CL1, 100nM Palbociclib, 204 Hours): 99.84% and 99.98% and 99.94% | % Confluency ([2]; MCF7 CDK4 D99N/D99N CL1, 100nM Palbociclib, 216 Hours): 99.70% and 99.96% and 99.94% | % Confluency ([2]; MCF7 CDK4 D99N/D99N CL1, 100nM Palbociclib, 228 Hours): 99.59% and 99.90% and 99.91% | % Confluency ([2]; MCF7 CDK4 D99N/D99N CL1, 100nM Palbociclib, 240 Hours): 99.43% and 99.87% and 99.89% | % Confluency ([2]; MCF7 CDK4 D99N/D99N CL1, 100nM Palbociclib, 252 Hours): 99.47% and 99.88% and 99.89% | % Confluency ([2]; MCF7 CDK4 D99N/D99N CL1, 500nM Palbociclib, 120 Hours): 55.43% and 56.21% and 51.96% | % Confluency ([2]; MCF7 CDK4 D99N/D99N CL1, 500nM Palbociclib, 132 Hours): 60.37% and 67.49% and 61.66% | % Confluency ([2]; MCF7 CDK4 D99N/D99N CL1, 500nM Palbociclib, 144 Hours): 73.62% and 74.74% and 74.56% | % Confluency ([2]; MCF7 CDK4 D99N/D99N CL1, 500nM Palbociclib, 156 Hours): 87.81% and 83.58% and 82.83% | % Confluency ([2]; MCF7 CDK4 D99N/D99N CL1, 500nM Palbociclib, 168 Hours): 94.40% and 90.42% and 83.33% | % Confluency ([2]; MCF7 CDK4 D99N/D99N CL1, 500nM Palbociclib, 180 Hours): 97.13% and 92.69% and 86.11% | % Confluency ([2]; MCF7 CDK4 D99N/D99N CL1, 500nM Palbociclib, 192 Hours): 98.13% and 96.59% and 92.91% | % Confluency ([2]; MCF7 CDK4 D99N/D99N CL1, 500nM Palbociclib, 204 Hours): 98.39% and 98.64% and 96.44% | % Confluency ([2]; MCF7 CDK4 D99N/D99N CL1, 500nM Palbociclib, 216 Hours): 98.42% and 99.24% and 97.64% | % Confluency ([2]; MCF7 CDK4 D99N/D99N CL1, 500nM Palbociclib, 228 Hours): 98.46% and 99.52% and 98.27% | % Confluency ([2]; MCF7 CDK4 D99N/D99N CL1, 500nM Palbociclib, 240 Hours): 98.59% and 99.53% and 98.58% | % Confluency ([2]; MCF7 CDK4 D99N/D99N CL1, 500nM Palbociclib, 252 Hours): 98.52% and 99.49% and 98.57% | % Confluency ([2]; MCF7 CDK4 D99N/D99N CL1, 1000nM Palbociclib, 120 Hours): 52.22% and 37.71% and 44.80% | % Confluency ([2]; MCF7 CDK4 D99N/D99N CL1, 1000nM Palbociclib, 132 Hours): 55.86% and 45.15% and 52.18% | % Confluency ([2]; MCF7 CDK4 D99N/D99N CL1, 1000nM Palbociclib, 144 Hours): 66.80% and 49.10% and 62.38% | % Confluency ([2]; MCF7 CDK4 D99N/D99N CL1, 1000nM Palbociclib, 156 Hours): 83.61% and 56.08% and 71.30% | % Confluency ([2]; MCF7 CDK4 D99N/D99N CL1, 1000nM Palbociclib, 168 Hours): 91.93% and 62.67% and 70.23% | % Confluency ([2]; MCF7 CDK4 D99N/D99N CL1, 1000nM Palbociclib, 180 Hours): 93.22% and 66.75% and 74.34% | % Confluency ([2]; MCF7 CDK4 D99N/D99N CL1, 1000nM Palbociclib, 192 Hours): 95.39% and 74.95% and 82.77% | % Confluency ([2]; MCF7 CDK4 D99N/D99N CL1, 1000nM Palbociclib, 204 Hours): 98.19% and 81.30% and 88.83% | % Confluency ([2]; MCF7 CDK4 D99N/D99N CL1, 1000nM Palbociclib, 216 Hours): 98.08% and 85.95% and 91.40% | % Confluency ([2]; MCF7 CDK4 D99N/D99N CL1, 1000nM Palbociclib, 228 Hours): 97.68% and 88.59% and 93.46% | % Confluency ([2]; MCF7 CDK4 D99N/D99N CL1, 1000nM Palbociclib, 240 Hours): 97.58% and 90.52% and 94.49% | % Confluency ([2]; MCF7 CDK4 D99N/D99N CL1, 1000nM Palbociclib, 252 Hours): 97.57% and 91.68% and 95.14%
